Data as given in PubChem BioAssay AID1224830 (NIAID, 2016).

Assay: 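Regulators of TLR4 signalling towards TNF-alpha in macrophage-like cells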 (primary screen)
System: human THP-1 monocytic leukaemia cells, TNF dual-luciferase reporter clone, PMA-differentiated to macrophage-like cells
Reagents: siRNA pool against human genes, 50 nM
Duration: LPS for 4 h, given about 3 days after siRNA transfection
Treatment: bacterial LPS (TLR4 ligand), 10 ng/ml
Read-out: 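TNF firefly reporter luminescence divided by renilla, normalised to the plate median, then turned into a robust z-score for each replicate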
Direction: TNF reporter robust z-score: higher = stronger TNF reporter response to LPS
Active means: 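a well is active when its z-score exceeds 2.8 or falls below -1.5; control wells carry no call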
This is an unselected part of about 18,000 reagents tested. Over the whole deposit, about 2,900 (16%) got an active call. 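Calls are made per well; low scores hint the gene aids the LPS response, high scores that it dampens it.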 Repeated entries: four replicate wells of each siRNA pool. Reagent sequences are not shown.

| gene | TNF reporter robust z-score | activity call |
| --- | --- | --- |
| PDHA1 | -1.25 | inactive |
| PDHA1 | -0.25 | inactive |
| PDHA1 | -1.1 | inactive |
| PDHA1 | -0.67 | inactive |
| CTAGE6 | 0.56 | inactive |
| CTAGE6 | 1 | inactive |
| CTAGE6 | 0.41 | inactive |
| CTAGE6 | 0.84 | inactive |
| PMCH | 1.08 | inactive |
| PMCH | 1.78 | inactive |
| PMCH | 0.98 | inactive |
| PMCH | 1.94 | inactive |
| SPANXA1 | 0.18 | inactive |
| SPANXA1 | 1.43 | inactive |
| SPANXA1 | 0.13 | inactive |
| SPANXA1 | 0.66 | inactive |
| LARP4 | 0.23 | inactive |
| LARP4 | 0.15 | inactive |
| LARP4 | -0.76 | inactive |
| LARP4 | -0.01 | inactive |
| SEMA5B | -0.8 | inactive |
| SEMA5B | -0.51 | inactive |
| SEMA5B | -0.74 | inactive |
| SEMA5B | 0.31 | inactive |
| LRRC26 | -1.21 | inactive |
| LRRC26 | -1.33 | inactive |
| LRRC26 | -0.89 | inactive |
| LRRC26 | -1.46 | inactive |
| OR1D2 | 1.13 | inactive |
| OR1D2 | 0.17 | inactive |
| OR1D2 | -0.05 | inactive |
| OR1D2 | 0.2 | inactive |
| ZNF571 | -0.75 | inactive |
| ZNF571 | -1.01 | inactive |
| ZNF571 | -1.22 | inactive |
| ZNF571 | -0.47 | inactive |
| SCRN2 | 0.29 | inactive |
| SCRN2 | -0.17 | inactive |
| SCRN2 | 0.08 | inactive |
| SCRN2 | 1.94 | inactive |
| TAF12 | -1.82 | active |
| TAF12 | -1.49 | inactive |
| TAF12 | -1.21 | inactive |
| TAF12 | -0.29 | inactive |
| PEX12 | 0.12 | inactive |
| PEX12 | 0.02 | inactive |
| PEX12 | 0.41 | inactive |
| PEX12 | -0.27 | inactive |
| ABT1 | -1.85 | active |
| ABT1 | -2.11 | active |
| ABT1 | -1.83 | active |
| ABT1 | -1.72 | active |
| RXFP1 | -0.19 | inactive |
| RXFP1 | -0.43 | inactive |
| RXFP1 | -0.27 | inactive |
| RXFP1 | -0.5 | inactive |
| OMG | 0.3 | inactive |
| OMG | 0.45 | inactive |
| OMG | -0.18 | inactive |
| OMG | 0.56 | inactive |
| POLR2C | -0.48 | inactive |
| POLR2C | -0.63 | inactive |
| POLR2C | -0.27 | inactive |
| POLR2C | -0.11 | inactive |
| DUSP21 | 0.42 | inactive |
| DUSP21 | 3.5 | active |
| DUSP21 | 0.67 | inactive |
| DUSP21 | -0.13 | inactive |
| FOXK1 | 3.56 | active |
| FOXK1 | 2.69 | inactive |
| FOXK1 | 3.27 | active |
| FOXK1 | 2.21 | inactive |
| ZNF775 | -0.88 | inactive |
| ZNF775 | 0.91 | inactive |
| ZNF775 | -0.05 | inactive |
| ZNF775 | -0.09 | inactive |
| TPRG1L | 0.03 | inactive |
| TPRG1L | -0.82 | inactive |
| TPRG1L | -0.68 | inactive |
| TPRG1L | -1.13 | inactive |
| SRPX2 | -0.58 | inactive |
| SRPX2 | 0.55 | inactive |
| SRPX2 | -0.34 | inactive |
| RGS7 | -1.02 | inactive |
| RGS7 | -0.15 | inactive |
| RGS7 | -0.73 | inactive |
| RGS7 | -0.71 | inactive |
| PGLYRP4 | 3.52 | active |
| PGLYRP4 | 1.21 | inactive |
| PGLYRP4 | 0.2 | inactive |
| PGLYRP4 | 0.43 | inactive |
| PNPLA5 | 0 | inactive |
| PNPLA5 | 0.9 | inactive |
| PNPLA5 | 0.4 | inactive |
| PNPLA5 | 1.77 | inactive |
| APOBEC4 | -0.23 | inactive |
| APOBEC4 | 0.28 | inactive |
| APOBEC4 | -0.63 | inactive |
| APOBEC4 | 0.84 | inactive |
| FN3KRP | -0.82 | inactive |
| FN3KRP | -0.16 | inactive |
| FN3KRP | -0.43 | inactive |
| FN3KRP | 0.08 | inactive |
| ANP32A | 0.78 | inactive |
| ANP32A | 1.55 | inactive |
| ANP32A | 0.06 | inactive |
| ANP32A | -0.74 | inactive |
| AP1M2 | 0.91 | inactive |
| AP1M2 | 0.58 | inactive |
| AP1M2 | 0.16 | inactive |
| AP1M2 | 1.01 | inactive |

In a second layout: 8 of the entries above
{"gene":"SCRN2","TNF reporter robust z-score":0.29,"activity call":"inactive"}
{"gene":"SCRN2","TNF reporter robust z-score":-0.17,"activity call":"inactive"}
{"gene":"SCRN2","TNF reporter robust z-score":0.08,"activity call":"inactive"}
{"gene":"SCRN2","TNF reporter robust z-score":1.94,"activity call":"inactive"}
{"gene":"TAF12","TNF reporter robust z-score":-1.82,"activity call":"active"}
{"gene":"TAF12","TNF reporter robust z-score":-1.49,"activity call":"inactive"}
{"gene":"TAF12","TNF reporter robust z-score":-1.21,"activity call":"inactive"}
{"gene":"TAF12","TNF reporter robust z-score":-0.29,"activity call":"inactive"}
